Test results from patent US20020169209A1, “Potentiation of therapeutic effects of fatty acids” (priority 2001, published 2002).
For at least one compound, name, drawing or mass did not settle the structure.

Assays:
Type in all cases: in vivo, human
[1] = tested on: rheumatoid arthritis; test: Case history: person with rheumatoid arthritis; conditions: one patient; celecoxib alone for six months, compared with standard NSAIDs
[2] = tested on: non-Hodgkin's lymphoma with multiple enlarged lymph nodes; test: Case history: person with non-Hodgkin's lymphoma; conditions: one patient; 8 g/day eicosapentaenoic acid as the pure ethyl ester alone, four weeks
[3] = tested on: depression; test: Case history: person seriously depressed for over 10 years; conditions: one patient; ethyl-eicosapentaenoate alone, 1 g/day
Protocol: Because there is evidence of elevated formation of prostaglandins in depression, they were given a combined COX-1 and COX-2 inhibitor, ibuprofen. […] The ibuprofen was stopped and they were treated with ethyl-eicosapentaenoate at a dose of 1 g/day. This seemed to have a modest effect but they remained far from well.

Structure (SMILES)	therapeutic effect on the arthritis [1]	tumour size [2]	effect on depression [3]
Cc1ccc(-c2cc(C(F)(F)F)nn2-c2ccc(S(N)(=O)=O)cc2)cc1 [celecoxib]	no better therapeutic effect on the arthritis		
CC/C=C\C/C=C\C/C=C\C/C=C\C/C=C\CCCC(=O)OCC [ethyl-eicosapentaenoate]		some reduction in tumour size	modest effect
